The values below are quoted from earlier work in PMC11387447 (Pharmacological Reports, 2024).

The conditions of the series: IIIATO group: single oral ATO 20 mg/kg b.w. alone, n = 8, adopted from previous study ref 12, cited from earlier work.
[1] abbreviates: rat plasma, median (quartiles) or mean ± SD (CV %).

Each structure is given as a SMILES string.

Consider `CC(C)c1c(C(=O)Nc2ccccc2)c(-c2ccccc2)c(-c2ccc(F)cc2)n1CC[C@@H](O)C[C@@H](O)CC(=O)O` [ATO, atorvastatin, reference compound], for which the tmax (median (quartiles)) is listed as 1.00 (1.00; 2.00) h. For the same compound, under setting [1], the “AUC0–∞” value is listed as 169.45 (162.03; 194.68) ng × h/mL and the Cmax is on record as 75.12 (47.94; 85.00) ng/mL.
